# Test results as given in PubChem BioAssay AID588497 (NMMLSC, 2011).
# Out of some 360,000 compounds screened, about 780 (0.22%) were called active. This list was built around the results that the source calls inconclusive (neither active nor inactive); the mix of calls is not that of the screen. No stated cut-off is given here; in the data, active means inhibition above about 35% (passing the limit was not always enough); inconclusive means no clear call, values can overlap the other calls. Where a SMILES comes first, the peptide text is derived from it. The star is where a group is joined. Boc = CC(C)(C)OC(=O)*
# System: Botulinum neurotoxin type F light chain protease (Clostridium botulinum)
# Assay: BoNT/F light chain protease inhibitors, primary screen, biochemical, flow cytometry, MLPCN library (AID 588497); further: plate controls were buffer without enzyme for full effect and enzyme alone for no effect
# Conditions: Multiplex microsphere protease cleavage assay, at 10 µM, active compounds read high
row,Structure (SMILES),inhibition
1,COc1ccc(NC(=O)C(=O)c2cn(CC(=O)N3CCOCC3)c3ccccc23)cc1OC,inactive: 1.7%
2,CN(CC(=O)Nc1c(Cl)cccc1Cl)C(=O)CNC(=O)c1ccc2c(c1)OCO2,inconclusive: 1.4%
3,COc1ccc(C(=O)NCCCc2ccccc2)cc1OC,inconclusive: -25.5%
4,Cc1nnsc1C(=O)NNc1ccc(Cl)cc1,inconclusive: -287%
5,O=C(O)CN1C(=O)C2(OCCO2)c2cc(Br)ccc21,inconclusive: 1.1%
6,O=C(NCc1ccc(F)cc1)N1CCN(C(=O)c2ccccc2)CC1,inconclusive: -0.7%
7,COCC(C)n1c(C)cc(C(=O)CN2C(=O)NC3(CCCCC3C)C2=O)c1C (centres undefined),inconclusive: -26.9%
8,O=C(O)CSc1nnc(-c2ccc(S(=O)(=O)N3CCCC3)cc2)n1Cc1ccco1,inactive: -2.9%
9,CCNC(=S)NNC(=O)c1csc(C)c1,inactive: -2.3%
10,CCOC(=O)c1cc(C#N)c(N2CCN(C(=O)c3cccc(C(F)(F)F)c3)CC2)nc1C(F)(F)F,inconclusive: 58.9%
11,CCN(CC)C(=O)Oc1ccc(Br)cc1C(=O)Nc1ccc(F)c(Cl)c1,inconclusive: -4.7%
12,COc1ccc(S(=O)(=O)Nc2nc3ccccc3nc2Nc2cccc(C(=O)O)c2)cc1,inactive: 2.5%
13,CC(=NC1CC1)C1=C(O)c2ccccc2C1=O,inactive: 0.2%
14,Cc1nn(C(C)C(=O)NC(C)CCc2ccccc2)c(=O)c2cc3occc3n12 (centres undefined),inactive: 6.5%
15,COc1ccccc1N1CCN(Cc2ccc(SC)cc2)CC1,inconclusive: 38.7%
16,CC(C)OC(=O)c1cccnc1N1CCN(c2ccc(F)cc2)CC1,inactive: -1.8%
17,Nc1nnc(SCC(=O)Nc2ccccc2)s1,inconclusive: -53.7%
18,c1ccc2c(c1)ccc1ccccc12,inactive: -3%
19,Cc1cc(-c2nnc(-c3cccc(Cl)c3)o2)no1,inconclusive: 6.2%
20,CCc1ccccc1Oc1nc(NC(C)C)nc2ccsc12,inactive: -3.5%
21,O=C(COC(=O)c1cccnc1)c1ccc(Cl)cc1,inactive: 0%
22,O=C(NCc1ccccc1)c1c[nH]c2ccccc2c1=O,inconclusive: -91.9%
23,O=C(Nc1cccc2c1CCCC2)c1cc(C2CCCCN2C(=O)CCCc2ccccc2)on1 (centres undefined),inactive: 2.6%
24,COc1ccc(S(=O)(=O)N2CCSC2C)cc1C (centres undefined),active: 43.7%

# Looked up above:
# Value of O=C(COC(=O)c1cccnc1)c1ccc(Cl)cc1 under inhibition: inactive: 0%
# Value of Nc1nnc(SCC(=O)Nc2ccccc2)s1 under inhibition: inconclusive: -53.7%
# Value of COc1ccc(S(=O)(=O)Nc2nc3ccccc3nc2Nc2cccc(C(=O)O)c2)cc1 under inhibition: inactive: 2.5%
# Value of O=C(Nc1cccc2c1CCCC2)c1cc(C2CCCCN2C(=O)CCCc2ccccc2)on1 (centres undefined) under inhibition: inactive: 2.6%

# (listing goes on)

row,Structure (SMILES),inhibition
1,COc1ccc(CNCCc2c[nH]c3ccccc23)c(OC)c1OC,inconclusive: -32.2%
2,O=C(NC1CC2CCC(C1)N2Cc1ccccc1)c1ccccc1Cl (centres undefined),inconclusive: -6.2%
3,c1ccc(CNc2nc3ccccc3n3cnnc23)nc1,inactive: -8.3%
4,Cc1cccc2sc(N(CCN(C)C)C(=O)c3cc(Cl)sc3Cl)nc12,inactive: 6.1%
5,N#CNc1nc(O)cc(=O)[nH]1,inconclusive: -20.9%
6,O=C(/C=C/C(=O)N1CCc2ccccc2C1)N1CCc2ccccc2C1,inconclusive: -33.9%
7,C=CCNC(=S)NNC(=O)c1cccnc1,inconclusive: 60.3%
8,CCC1=NN2C(=N)/C(=C/c3cc(C)n(Cc4ccccc4)c3C)C(=O)N=C2S1,inconclusive: -15.9%
9,COc1ccc(C2/C(=C(\O)c3cc(C)ccc3C)C(=O)C(=O)N2CCN(C)C)cc1OC (centres undefined),inactive: -3.7%
10,CCCNC(=S)N1CCN(c2nc(-c3ccc(C)cc3)cs2)CC1,inconclusive: 2.8%
11,COc1ccc(OC)c(C2=Nn3c(nnc3-c3cc(C)[nH]n3)SC2)c1,inconclusive: -28.9%
12,O=C(Nc1cccc2c1CCCC2)c1ccccc1Cl,inconclusive: -28.3%
13,Cc1ccc(NC(=O)C2(C)CCN2C(=O)Cc2ccc(C(C)C)cc2)cc1 (centres undefined),inactive: -4.7%
14,O=c1c2cc(N3CCOCC3)ccc2[nH]c(=S)n1Cc1ccco1,inconclusive: 46.1%
15,CCCC(=O)Nc1nnc(SCC)s1,inactive: -5%
16,N#CC1=C(N)C(C#N)(C#N)C(c2cccnc2)C2CN(C(=O)OCc3ccccc3)CC=C12 (centres undefined),inactive: 3.3%
17,Cc1ccccc1C(=O)Nc1ccc(S(=O)(=O)Nc2onc(C)c2C)cc1,inactive: -3.4%
18,COc1cc(OC)cc(C(=O)NCCSCc2ccc(Cl)cc2)c1,inconclusive: -15.6%
19,Cc1ccc(S(=O)(=O)NCCNS(=O)(=O)c2ccc(C)cc2)cc1,inactive: 8.4%
20,CC(C)[C@H](NC(=O)c1ccco1)C(=O)Nc1ccc(OC(F)F)cc1,inconclusive: 1.2%
21,CCN(CC)CCCNc1ncnc2scc(-c3ccc(F)cc3)c12,inconclusive: 15.5%
22,CC1(C(=O)NC2CCCC2)CCC(=O)N1CCC1=CCCCC1 (centres undefined),inconclusive: 14.8%
23,CCN(CC(=O)Nc1ccc(NC(C)=O)cc1)C(=O)c1cccnc1Sc1ccc(C)c(C)c1,inconclusive: -19.1%
24,O=C(c1cccc(Cl)c1)N1CCN(C2CCCCC2)CC1,inconclusive: -3.8%

# Exported bar-delimited: 4 of the compounds above.
row | Structure (SMILES) | inhibition
14 | O=c1c2cc(N3CCOCC3)ccc2[nH]c(=S)n1Cc1ccco1 | inconclusive: 46.1%
15 | CCCC(=O)Nc1nnc(SCC)s1 | inactive: -5%
16 | N#CC1=C(N)C(C#N)(C#N)C(c2cccnc2)C2CN(C(=O)OCc3ccccc3)CC=C12 (centres undefined) | inactive: 3.3%
17 | Cc1ccccc1C(=O)Nc1ccc(S(=O)(=O)Nc2onc(C)c2C)cc1 | inactive: -3.4%

# (list continues)

row,Structure (SMILES),inhibition
1,Cc1c(S(=O)(=O)N2CCCC2)c(=O)n(C)c(=O)n1C,inconclusive: 10.9%
2,CCN(CC)c1ccc(/C=C(\C#N)C(=O)c2ccc(Br)cc2)cc1,active: 61.3%
3,C/C(=N\N=C(/N)c1nonc1N)c1ccc2c(c1)OCO2,inconclusive: 22.2%
4,CNC(=S)N1C2CCCC1CC(NC(=O)c1ccc(C)cc1)C2 (centres undefined),inconclusive: -1.1%
5,CCCCCCC(Cl)(Cn1ccnc1)c1ccccc1 (centres undefined),inconclusive: -33.8%
6,COCc1cc(=O)[nH]c(SCC(=O)c2ccccc2)n1,inconclusive: 4.8%
7,COc1cc(C2NC(=O)NC(C)=C2C(=O)OC(C)(C)C)ccc1OCC(N)=O (centres undefined),inactive: -7.8%
8,CC(C)NC(=O)Nc1cccc2c1O[C@H](CN(C)C(=O)Nc1ccccc1)[C@@H](C)CN([C@H](C)CO)C2=O,inactive: -5.1%
9,CCOc1ccc(C2=CSC3=NCCN23)cc1,inconclusive: 27.8%
10,N#Cc1cc(-c2ccc(Cl)cc2)cnc1Sc1ccccc1,inactive: -19%
11,Cc1ccc(-c2nc(CS(=O)CC(=O)NC3CC3)c(C)o2)cc1 (centres undefined),inactive: 3%
12,COCC(=O)N[C@@H]1c2ccccc2CC[C@@H]1OCc1ccccc1,inactive: -2.2%
13,Oc1ccc(C(=S)N2CCCC2)cc1,inconclusive: -55.7%
14,COc1ccc(Nc2ncnc3c2cnn3Cc2ccc(C)cc2)cc1,inconclusive: -43.3%
15,CC(=O)N1CCN(c2ccc(NC(=O)C(c3ccccc3)c3ccccc3)cc2)CC1,inconclusive: -26.7%
16,CCN(C(=O)CN1C(=O)NC2(CCCC2)C1=O)c1nc2c(C)cccc2s1,inactive: -8%
17,O=C(CSC1=NS(=O)(=O)c2cc(Cl)ccc2N1)Nc1cccc(F)c1,inconclusive: -11.2%
18,Cc1cc(C)c(OCCCNC2CCCC2)c(Br)c1,inactive: -8.8%
19,Cc1cccc(/C=N/NC(=O)c2cccc(NC(=O)c3ccccc3)c2)n1,inconclusive: -24.5%
20,O=C(Nc1ccc(-c2cnco2)cc1)c1ccc(F)cc1F,inconclusive: -71.6%
21,COc1ccc(-c2sc3ccccc3c2C#Cc2cncn2C)cc1,inactive: -6%
22,CC1(C)CC(=O)c2cc(C(=O)O)c(=O)n(-c3ccccc3)c2C1,inactive: 10.1%
23,CSCCC(NC(=O)OC(C)(C)C)C(=O)NC(C(=O)NC(CC(C)C)C(N)=O)C(C)C (stereo not drawn) (Boc-Met-Val-Leu-NH2; configuration not given here),active: 71.7%
24,COc1ccc(C(=O)N2CCC2(C)C(=O)NC(C)C)c(OC)c1 (centres undefined),inactive: 0.2%

row,Structure (SMILES),inhibition
1,Cn1cc(Br)c(C(=O)N/N=C/c2cc3ccccc3nc2Cl)n1,inactive: -16.8%
2,COc1cc(C)nc(-c2csc(C)n2)n1,inconclusive: -256%
3,O=C(NCc1ccc(Cl)cc1)C1CCC(=O)N(C2CCCCCC2)C1 (centres undefined),inactive: 6.1%
4,CC1(C(=O)O)CCCN1C(=O)c1ccccc1OC(F)(F)F (centres undefined),inactive: 3.9%
5,Cc1onc(-c2c(Cl)cccc2Cl)c1C(=O)Nc1ccc(N2CCOCC2)cc1,inconclusive: -9.9%
6,COC(=O)[C@H](CC(C)C)NC(=O)Nc1ccccc1F,inconclusive: 10.2%
7,CCC(C)OC(=O)c1cc(C)nc2c(Br)cc(Br)cc12 (centres undefined),inactive: -8.4%
8,O=C1c2cccc3c(O)ccc(c23)C(=O)N1c1ccc(Cl)cc1,inconclusive: -23.5%
9,O=C(c1ccc2c(c1)OCCCO2)N1CCCCC1,inconclusive: 138%
10,CCCn1cnc2cc(NCc3ccccc3O)ccc21,inconclusive: 10.9%
11,COc1ccc(/C(C)=N/NC(=O)c2ccncc2)cc1[N+](=O)[O-],inconclusive: -18%
12,Cc1ccc(C2(C)NC(=O)N(CC(=O)NC(=O)NC(C)(C)C)C2=O)cc1 (centres undefined),inactive: 0%
13,CCCN1CCN(CC(=O)Nc2nnc(C)s2)CC1,inconclusive: -26.6%
14,O=C(CCc1ccccc1)N1CCN(Cc2ccc(F)cc2Cl)CC1,inconclusive: 40.4%
15,CCOC(=O)c1oc2cccc(OC(C)=O)c2c1C,inconclusive: -17.5%
16,O=c1c(=O)n2c(nn1Cc1ccc(F)cc1)sc1ccccc12,inconclusive: 7.8%
17,CCOC(=O)c1csc(COc2ccc(OC)cc2)n1,inconclusive: -11.3%
18,O=C1c2cccc3c([N+](=O)[O-])ccc(c23)C(=O)N1O,inconclusive: -6.1%
19,CCCn1c(SCC(=O)OCc2ccccc2)nc2c1c(=O)n(C)c(=O)n2C,inconclusive: -9.8%
20,COc1ccc(OCC(=O)N2CCC(Cc3ccccc3)CC2)cc1,inactive: -1.9%
21,Cn1sc(=O)c2cc(S(=O)(=O)NC3CC3)ccc21,inconclusive: 28.2%
22,Cc1ccc2[nH]c(C(=O)N3CCOCC3)cc2c1,inconclusive: -4.7%
